# Target: Jurkat-CRAC
# Experiment: Selectivity patch clamp, Jurkat CRAC channels
# Type: cell-based, human
# Conditions: monovalent currents with Na+ as charge carrier
# Description: L929 cells stably expressing mKv1.1, rKv1.2, mKv1.3, and mKv3.1 and MEL cells stably expressing hKv1.5 have been previously described (Grissmer 1994, Mol. Pharmacol. 45: 1227). hKv1.4 and rKv4.2 were stably expressed in LTK (HK1–7). Channel expression was induced 8–12 h before the electrophysiological experiments by 4 μM dexamethasone (Sigma). HEK-293 cells stably expressing the skeletal muscle sodium channel hSkM1 (SCN4A) were generated in the laboratory of Dr. F. Lehmann-Horn. HEK-293 cells stably expressing hSloα were obtained from Dr. Andrew Tinker (Center for Clinical Pharmacology, University College London). L929, MEL, LTK and HEK cells were maintained in DMEM containing 10% heat-inactivated fetal calf serum (Summit Biotechnology, Fort Collins, Colo.) and 250 μg/ml G418 (Life Technologies, Inc.). Rat basophilic leukemia (RBL) cells were maintained in Eagle's minimum essential medium with 2 mM L-glutamine and 10% fetal calf serum. CHO cell were maintained in F12K media (ATCC). Human leukemic Jurkat E6–1 cells were cultured in RPMI 1640 supplemented with 10% fetal calf serum and 1 mM L-glutamine. T84 cells were maintained in a 1:1 mixture of Ham's F12 medium and DMEM with 2.5 mM L-glutamine and 10% fetal calf serum.
# Recordings from the Jurkat SKCa channel were made in K^+ aspartate Ringer (Na^+ was replaced by K^+) with the same internal pipette solution. […]
structure (smiles),measurement,value
"Clc1ccccc1C(c1ccccc1)(c1ccccc1)n1ccnc1 [Clotrimazole, reference compound]",Block of Jurkat-CRAC (Ca),no effect at 10 μM (n =
